Data taken from paper PMC5904360, “Soluble N-Ethylmaleimide-Sensitive Factor Attachment Protein Receptor-Derived Peptides for Regulation of Mast Cell Degranulation” (Frontiers in Immunology, 2018).
Results are given in words; binding and its absence hold for the method and conditions named. In cells and extracts the contact can be indirect. Some results given as binding are weak or reduced against the parent protein; the word gives no strength.

Amino acid sequences for entries named in this document (tags omitted).
UniProt P63045: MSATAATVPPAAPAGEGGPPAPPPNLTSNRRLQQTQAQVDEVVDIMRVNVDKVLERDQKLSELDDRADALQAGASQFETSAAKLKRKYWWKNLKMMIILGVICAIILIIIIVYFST
UniProt Q08850: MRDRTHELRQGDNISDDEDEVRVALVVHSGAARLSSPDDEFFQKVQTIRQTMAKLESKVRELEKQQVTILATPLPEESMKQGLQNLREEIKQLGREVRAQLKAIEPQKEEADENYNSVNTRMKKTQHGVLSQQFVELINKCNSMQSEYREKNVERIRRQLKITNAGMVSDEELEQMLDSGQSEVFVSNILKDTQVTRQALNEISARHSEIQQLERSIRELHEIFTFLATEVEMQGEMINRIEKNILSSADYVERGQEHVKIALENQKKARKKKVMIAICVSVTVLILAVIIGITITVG

Assays:
Test in all cases: co-IP; lysates of activated RBL-2H3 cells (50 mM Tris-HCl, 150 mM NaCl, 1% Triton X-100, 1 mM EDTA, pH 7.5; 4°C); immunoprecipitation with antibodies against Syn4, VAMP2 or VAMP8 and protein G, blot with anti-SNAP-23; cells with or without A23187 pretreatment and peptides or LY294002
[1] = target: vesicle-associated membrane protein 2 (VAMP2) (rat (endogenous in RBL-2H3)) (UniProt P63045)
[2] = target: T1, vesicle-associated membrane protein 8 (VAMP8) (rat (endogenous in RBL-2H3)) (UniProt Q9WUF4)
T1 sequence: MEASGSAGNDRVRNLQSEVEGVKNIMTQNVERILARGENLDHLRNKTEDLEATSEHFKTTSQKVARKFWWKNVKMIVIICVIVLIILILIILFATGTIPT

[3] = target: syntaxin 4 (rat (endogenous in RBL-2H3)) (UniProt Q08850)

Measured: binding

B1: synaptosome-associated protein of 23 kDa (SNAP-23) (protein, UniProt O70377 1-210)
chain: MDDLSPEEIQLRAHQVTDESLESTRRILGLAIESQDAGIKTITMLDEQGEQLNRIEEGMDQINKDMREAEKTLTELNKCCGLCVCPCNRTKNFESGKNYKATWGDGGDSSPSNVVSKQPSRITNGQPQQTTGAASGGYIKRITNDAREDEMEENLTQVGSILGNLKNMALDMGNEIDAQNQQIQKITEKADTNKNRIDIANTRAKKLIDS
binds: all assays above
